Some entries share one result that the patent states for a list of compounds.
Key:
[1] = test system: two-spotted spider mite (Tetranychus urticae); test: Tetranychus urticae spray test; OP-resistant (bean plants); type: in vivo; settings: 4 ppm, after 7 days
[2] = test system: mustard beetle larvae (Phaedon cochleariae); test: Phaedon cochleariae spray test (Chinese cabbage leaf disks); type: in vivo; settings: 100 g/ha, after 7 days
Description: Phaedon cochleariae—Spray Test
Solvent: 78.0 parts by weight of acetone
• 1.5 parts by weight of dimethylformamide Emulsifier: alkylarylpolyglycol ether
Chinese cabbage (Brassica pekinensis) leaf disks are sprayed with a preparation of the active ingredient of the desired concentration.

[3] = test system: larvae of the Australian sheep blowfly (Lucilia cuprina); test: Lucilia cuprina test (LUCICU); type: in vivo; settings: 100 ppm, after 2 days
Procedure: Lucilia cuprina—Test (LUCICU)
(§1) Solvent: dimethyl sulfoxide
10 mg active compound are dissolved in 0.5 ml Dimethylsulfoxid. Serial dilutions are made to obtain the desired rates.
Approximately 20 […] instar larvae of the Australian sheep blowfly (Lucilia cuprina) are transferred into a test tube containing minced horse meat and compound solution of the desired concentration.

[4] = test system: two spotted spidermite (Tetranychus urticae); test: Tetranychus urticae spray test OP-resistant (French bean leaf disks); type: in vivo; settings: 100 g/ha, after 6 days
Procedure: Tetranychus urticae—Spray Test OP-Resistant
(§2) Solvent: 78.0 parts by weight acetone
(§3) • 1.5 parts by weight dimethylformamide Emulsifier: alkylarylpolyglycol ether
French bean (Phaseolus vulgaris) leaf disks which are heavily infested with all stages of the two spotted spidermite (Tetranychus urticae) are sprayed with a preparation of the active ingredient of the desired concentration.
(§4) After 6 days mortality in % is determined.

[5] = test system: adult unfed cat fleas (Ctenocephalides felis); test: Ctenocephalides felis oral test (CTECFE); type: in vivo; settings: 100 ppm in cattle blood, after 2 days
Procedure: Ctenocephalides felis—Oral Test (CTECFE)
as §1
Approximately 20 adult unfed cat fleas (Ctenocephalides felis) are placed in flea chambers. The blood chamber, sealed with parafilm on the bottom, are filled with cattle blood supplied with compound solution and placed on the gauze covered top of the flea chamber, so that the fleas are able to suck the blood. The blood chamber is heated to 37° C. whereas the flea chamber is kept at room temperature.

[6] = test system: green peach aphid (Myzus persicae); test: Myzus persicae spray test (Chinese cabbage leaf disks); type: in vivo; settings: 100 g/ha, after 6 days
Procedure: Myzus persicae—Spray Test
as §2, §3
Chinese cabbage (Brassica pekinensis) leaf disks infected with all instars of the green peach aphid (Myzus persicae), are sprayed with a preparation of the active ingredient of the desired concentration.
as §4

[7] = test system: mustard beetle larvae (Phaedon cochleariae); test: Phaedon cochleariae spray test (cabbage leaves); settings: 4 ppm, after 7 days
[8] = test system: green peach aphid (Myzus persicae); test: Myzus persicae spray test (pepper leaves); type: in vivo; settings: 4 ppm, after 6 days

SMILES	mortality in % [1]	mortality in % [2]	mortality in % [3]	mortality in % [4]	mortality in % [5]	mortality in % [6]	mortality in % [7]	mortality in % [8]
CSc1c(C(F)(F)C(F)(F)F)nn(C)c1-n1cc(-c2ccc(C)c(C(=O)NC3(C#N)CC3)c2)cn1 [Example I-16]	100%							
Cc1ccc(-c2cnn(-c3c([S+](C)[O-])c(C(F)(F)C(F)(F)F)nn3C)c2)cc1C(=O)NC1CC1 (stereo not drawn) [Example I-18]		100%	100%	100%	100%	100%		
Cn1nc(C(F)(F)F)c(S(C)(=O)=O)c1-n1cc(-c2ccc(Cl)c(C(=O)NC3CC3)c2)cn1 [Example I-05]		100%			100%			
Cn1nc(C(F)(F)C(F)(F)F)c(S(C)(=O)=O)c1-n1cc(-c2ccc(Cl)c(C(=O)NC3(C#N)CC3)c2)cn1 [Example I-04]	100%	100%	100%	100%	100%	100%	100%	100%
CSc1c(C(F)(F)C(F)(F)F)nn(C)c1-n1cc(-c2ccc(Cl)c(C(=O)NC3CC3)c2)cn1 [Example I-12]	100%	100%	100%	100%	100%	90%	100%	100%
CCSc1c(C(F)(F)C(F)(F)F)nn(C)c1-n1cc(-c2ccc(Cl)c(C(=O)NC3(C#N)CC3)c2)cn1 [Example I-15]	100%	100%	100%	100%	100%	90%	100%	
Cn1nc(C(F)(F)C(F)(F)F)c([S+](C)[O-])c1-n1cc(-c2ccc(Cl)c(C(=O)NC3(C#N)CC3)c2)cn1 (single isomer, unassigned) [Example I-08]	100%							
CCSc1c(C(F)(F)C(F)(F)F)nn(C)c1-n1cc(-c2ccc(Cl)c(C(=O)NC3CC3)c2)cn1 [Example I-11]		100%	100%	100%	100%	100%		
Cc1ccc(-c2cnn(-c3c(S(C)(=O)=O)c(C(F)(F)C(F)(F)F)nn3C)c2)cc1C(=O)NC1CC1 [Example I-09]				100%	100%	100%		
Cn1nc(C(F)(F)C(F)(F)F)c([S+](C)[O-])c1-n1cc(-c2cnc(Cl)c(C(=O)NC3(C#N)CC3)c2)cn1 (stereo not drawn) [Example I-20]	100%	100%	100%	100%	100%	100%		
Cn1nc(C(F)(F)C(F)(F)F)c([S+](C)[O-])c1-n1cc(-c2ccc(Cl)c(C(=O)NC3(C#N)CC3)c2)cn1 (racemic) [Example I-03]	100%	100%	100%	100%	100%	90%		
Cn1nc(C(F)(F)C(F)(F)F)c([S+](C)[O-])c1-n1cc(-c2ccc(Cl)c(C(=O)NC3CC3)c2)cn1 (stereo not drawn) [Example I-06]		100%	100%		100%	90%		
Cc1ccc(-c2cnn(-c3c(S(C)(=O)=O)c(C(F)(F)C(F)(F)F)nn3C)c2)cc1C(=O)NC1(C#N)CC1 [Example I-23]	100%	100%	100%	100%	100%			
Cn1nc(C(F)(F)C(F)(F)F)c(S(C)(=O)=O)c1-n1cc(-c2ccc(Cl)c(C(=O)NC3CC3)c2)cn1 [Example I-07]	100%	100%	100%	100%	100%	90%	100%	
Cc1ccc(-c2cnn(-c3c([S+](C)[O-])c(C(F)(F)C(F)(F)F)nn3C)c2)cc1C(=O)NC1(C#N)CC1 (stereo not drawn) [Example I-24]	100%	100%	100%	100%	100%	100%		100%

Reference: US9936699B2, “Halogen-substituted compounds” (BAYER CROPSCIENCE AKTIENGESELLSCHAFT, priority 2014, dated 2018)
